# Conditions: TSK-Gel HA 1000 column, sodium phosphate gradient, pH 6.8
# Experimental: Hydroxyapatite is the principal mineral component of bone. Hydroxyapatite adsorption chromatography is used as an assay to evaluate the bone-targeting potential of both individual bone-targeting moieties (“monomers”) and of pharmaceuticals incorporating bone-targeting groups.
# Method: The rentention time of a test compound is measured using a linear gradient from 10 mM sodium phosphate, 0.15 N NaCl, pH=6.8 to 500 mM sodium phosphate, 0.15 N NaCl, […] on a TSK-Gel HA 1000 high pressure liquid chromatography column (7.5 mm×75 mm). […] This K value is corrected using two reference compounds to correct from inter-column and inter-system variation to obtain a K′ value.
smiles,measurement,value
"NCCCC(O)(P(=O)(O)O)P(=O)(O)O [Alendronate, alendronate]",K′ value (corrected hydroxyapatite retention),3.7

# Source: patent US7115589B2, “Purine derivatives” (ARIAD Pharmaceuticals, Inc., priority 1999, dated 2006)
